# This is one part of the list.
# Chains of the proteins cited; added tags and fusions are not shown. Lines headed by an entry give the natural chain unless they say otherwise; changes in a name come on top.
# UniProt Q7Z3D6: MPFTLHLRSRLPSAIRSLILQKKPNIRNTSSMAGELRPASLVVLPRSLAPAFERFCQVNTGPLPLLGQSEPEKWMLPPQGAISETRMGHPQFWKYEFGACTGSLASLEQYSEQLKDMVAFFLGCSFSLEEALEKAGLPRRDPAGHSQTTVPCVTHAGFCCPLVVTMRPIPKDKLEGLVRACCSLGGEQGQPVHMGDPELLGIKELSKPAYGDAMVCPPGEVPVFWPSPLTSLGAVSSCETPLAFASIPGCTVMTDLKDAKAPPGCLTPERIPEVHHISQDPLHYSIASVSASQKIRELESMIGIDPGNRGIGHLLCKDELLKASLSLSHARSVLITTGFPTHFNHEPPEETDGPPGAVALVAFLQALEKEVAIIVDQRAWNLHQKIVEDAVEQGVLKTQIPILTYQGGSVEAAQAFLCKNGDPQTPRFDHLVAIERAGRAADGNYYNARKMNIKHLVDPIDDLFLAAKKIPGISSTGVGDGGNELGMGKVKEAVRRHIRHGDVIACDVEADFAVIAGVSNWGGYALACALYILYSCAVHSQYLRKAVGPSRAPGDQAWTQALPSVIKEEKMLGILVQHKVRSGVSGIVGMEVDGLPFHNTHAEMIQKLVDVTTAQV
# UniProt O00571: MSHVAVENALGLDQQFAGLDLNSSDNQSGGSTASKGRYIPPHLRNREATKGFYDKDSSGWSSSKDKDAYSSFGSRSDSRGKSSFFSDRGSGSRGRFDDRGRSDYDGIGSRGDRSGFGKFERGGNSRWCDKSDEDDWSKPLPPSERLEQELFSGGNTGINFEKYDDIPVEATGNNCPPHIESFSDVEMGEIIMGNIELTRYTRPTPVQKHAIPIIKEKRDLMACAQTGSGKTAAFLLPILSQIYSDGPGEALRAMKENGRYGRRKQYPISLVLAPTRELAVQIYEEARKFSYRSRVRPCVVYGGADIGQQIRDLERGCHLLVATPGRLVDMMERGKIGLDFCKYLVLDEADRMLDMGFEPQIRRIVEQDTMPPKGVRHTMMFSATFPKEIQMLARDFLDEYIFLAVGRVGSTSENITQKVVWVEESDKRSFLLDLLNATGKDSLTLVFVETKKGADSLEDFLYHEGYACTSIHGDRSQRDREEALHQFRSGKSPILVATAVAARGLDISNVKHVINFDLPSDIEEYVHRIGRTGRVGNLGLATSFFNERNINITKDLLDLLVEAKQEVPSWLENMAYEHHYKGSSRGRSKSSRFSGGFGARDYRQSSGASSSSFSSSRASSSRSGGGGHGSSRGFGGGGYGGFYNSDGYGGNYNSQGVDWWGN
# UniProt Q96GQ7: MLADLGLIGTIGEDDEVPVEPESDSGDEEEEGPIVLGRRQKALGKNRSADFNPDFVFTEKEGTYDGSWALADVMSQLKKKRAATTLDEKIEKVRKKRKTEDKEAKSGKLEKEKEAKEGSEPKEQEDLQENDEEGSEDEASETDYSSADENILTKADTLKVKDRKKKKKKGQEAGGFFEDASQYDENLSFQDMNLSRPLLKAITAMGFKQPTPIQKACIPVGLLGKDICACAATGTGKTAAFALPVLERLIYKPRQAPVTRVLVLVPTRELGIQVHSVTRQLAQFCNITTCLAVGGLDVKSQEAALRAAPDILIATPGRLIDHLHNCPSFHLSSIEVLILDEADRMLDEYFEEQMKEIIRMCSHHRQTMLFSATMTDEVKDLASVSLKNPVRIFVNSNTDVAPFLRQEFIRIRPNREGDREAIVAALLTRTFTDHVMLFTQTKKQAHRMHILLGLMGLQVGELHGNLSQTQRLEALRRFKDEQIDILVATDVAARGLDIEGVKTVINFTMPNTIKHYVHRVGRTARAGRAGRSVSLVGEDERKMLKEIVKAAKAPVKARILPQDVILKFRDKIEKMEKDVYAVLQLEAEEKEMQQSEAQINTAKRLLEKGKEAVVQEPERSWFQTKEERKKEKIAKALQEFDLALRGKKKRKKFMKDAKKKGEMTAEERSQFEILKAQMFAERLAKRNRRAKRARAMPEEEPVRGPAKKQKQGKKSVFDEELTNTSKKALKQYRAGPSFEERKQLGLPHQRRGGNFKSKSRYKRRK
# UniProt Q9NUL7: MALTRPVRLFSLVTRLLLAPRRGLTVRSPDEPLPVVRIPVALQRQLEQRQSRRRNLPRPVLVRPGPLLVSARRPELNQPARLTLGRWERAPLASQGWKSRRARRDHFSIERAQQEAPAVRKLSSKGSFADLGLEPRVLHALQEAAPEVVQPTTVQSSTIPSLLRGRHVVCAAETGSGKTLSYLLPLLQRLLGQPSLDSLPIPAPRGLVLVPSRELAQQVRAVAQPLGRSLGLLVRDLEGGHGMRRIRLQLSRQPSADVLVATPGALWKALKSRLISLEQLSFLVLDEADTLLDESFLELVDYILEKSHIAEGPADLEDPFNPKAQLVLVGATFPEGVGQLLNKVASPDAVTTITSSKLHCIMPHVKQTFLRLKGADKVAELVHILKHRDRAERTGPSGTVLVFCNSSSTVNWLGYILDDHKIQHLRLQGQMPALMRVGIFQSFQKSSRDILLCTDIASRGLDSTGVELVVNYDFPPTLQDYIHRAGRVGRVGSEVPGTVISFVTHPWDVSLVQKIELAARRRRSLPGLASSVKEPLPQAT
# UniProt Q9UHI6: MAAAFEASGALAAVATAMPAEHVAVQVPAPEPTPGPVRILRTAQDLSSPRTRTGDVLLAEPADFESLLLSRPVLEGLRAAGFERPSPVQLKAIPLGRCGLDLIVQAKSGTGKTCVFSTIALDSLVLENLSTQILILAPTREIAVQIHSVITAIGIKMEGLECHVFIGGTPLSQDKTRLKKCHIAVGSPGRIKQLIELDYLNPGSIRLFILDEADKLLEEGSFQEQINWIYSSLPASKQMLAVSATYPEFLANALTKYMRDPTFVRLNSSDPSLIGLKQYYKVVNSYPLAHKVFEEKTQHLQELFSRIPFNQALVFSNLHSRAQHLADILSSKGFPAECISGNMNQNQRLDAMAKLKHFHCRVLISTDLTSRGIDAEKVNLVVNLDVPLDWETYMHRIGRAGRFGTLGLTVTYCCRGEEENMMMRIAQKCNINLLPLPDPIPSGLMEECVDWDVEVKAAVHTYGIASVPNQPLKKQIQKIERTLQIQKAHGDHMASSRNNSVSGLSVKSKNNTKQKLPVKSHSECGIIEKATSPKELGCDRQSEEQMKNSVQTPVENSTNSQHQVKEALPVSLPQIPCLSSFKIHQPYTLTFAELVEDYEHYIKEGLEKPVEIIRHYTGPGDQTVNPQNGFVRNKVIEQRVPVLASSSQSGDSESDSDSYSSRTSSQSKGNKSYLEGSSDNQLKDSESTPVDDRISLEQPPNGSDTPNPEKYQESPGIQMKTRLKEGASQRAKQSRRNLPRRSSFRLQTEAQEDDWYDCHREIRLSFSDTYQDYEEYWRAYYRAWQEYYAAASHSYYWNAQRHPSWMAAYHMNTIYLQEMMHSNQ
# UniProt Q9GZR7: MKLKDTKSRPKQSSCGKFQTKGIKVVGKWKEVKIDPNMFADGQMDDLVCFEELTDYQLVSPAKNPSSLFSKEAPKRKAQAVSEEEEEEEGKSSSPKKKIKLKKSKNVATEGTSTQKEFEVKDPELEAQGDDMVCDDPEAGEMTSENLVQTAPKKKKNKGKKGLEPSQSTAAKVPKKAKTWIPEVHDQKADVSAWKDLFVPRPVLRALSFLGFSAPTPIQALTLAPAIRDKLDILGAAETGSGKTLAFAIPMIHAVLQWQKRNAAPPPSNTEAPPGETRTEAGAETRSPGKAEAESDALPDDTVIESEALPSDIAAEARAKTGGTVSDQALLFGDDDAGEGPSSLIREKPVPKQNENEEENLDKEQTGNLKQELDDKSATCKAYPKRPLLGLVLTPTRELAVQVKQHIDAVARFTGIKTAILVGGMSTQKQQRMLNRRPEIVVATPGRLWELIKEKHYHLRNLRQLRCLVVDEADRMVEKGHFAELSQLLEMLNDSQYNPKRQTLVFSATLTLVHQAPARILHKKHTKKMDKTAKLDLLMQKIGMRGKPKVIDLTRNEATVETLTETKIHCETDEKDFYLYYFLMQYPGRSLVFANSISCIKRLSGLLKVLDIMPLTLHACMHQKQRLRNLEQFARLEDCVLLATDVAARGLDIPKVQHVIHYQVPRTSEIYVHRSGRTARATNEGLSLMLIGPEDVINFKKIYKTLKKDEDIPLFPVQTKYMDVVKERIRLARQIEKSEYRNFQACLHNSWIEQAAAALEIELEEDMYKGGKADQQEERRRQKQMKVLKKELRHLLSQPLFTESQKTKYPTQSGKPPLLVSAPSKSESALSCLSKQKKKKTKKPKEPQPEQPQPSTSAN
# UniProt P26196: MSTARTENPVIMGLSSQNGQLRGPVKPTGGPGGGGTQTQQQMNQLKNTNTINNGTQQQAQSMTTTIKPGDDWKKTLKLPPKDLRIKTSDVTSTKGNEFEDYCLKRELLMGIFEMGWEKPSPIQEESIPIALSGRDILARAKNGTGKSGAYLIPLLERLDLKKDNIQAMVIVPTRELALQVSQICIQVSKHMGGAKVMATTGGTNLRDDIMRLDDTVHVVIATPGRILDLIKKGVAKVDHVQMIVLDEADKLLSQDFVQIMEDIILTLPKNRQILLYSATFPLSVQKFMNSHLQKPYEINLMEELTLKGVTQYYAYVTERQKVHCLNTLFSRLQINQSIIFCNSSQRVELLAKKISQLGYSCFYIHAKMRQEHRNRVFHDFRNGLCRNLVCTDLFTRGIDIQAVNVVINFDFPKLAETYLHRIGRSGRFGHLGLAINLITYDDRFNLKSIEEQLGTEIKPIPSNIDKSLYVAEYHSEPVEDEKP
# UniProt Q9H4E7, whole entry, looked up: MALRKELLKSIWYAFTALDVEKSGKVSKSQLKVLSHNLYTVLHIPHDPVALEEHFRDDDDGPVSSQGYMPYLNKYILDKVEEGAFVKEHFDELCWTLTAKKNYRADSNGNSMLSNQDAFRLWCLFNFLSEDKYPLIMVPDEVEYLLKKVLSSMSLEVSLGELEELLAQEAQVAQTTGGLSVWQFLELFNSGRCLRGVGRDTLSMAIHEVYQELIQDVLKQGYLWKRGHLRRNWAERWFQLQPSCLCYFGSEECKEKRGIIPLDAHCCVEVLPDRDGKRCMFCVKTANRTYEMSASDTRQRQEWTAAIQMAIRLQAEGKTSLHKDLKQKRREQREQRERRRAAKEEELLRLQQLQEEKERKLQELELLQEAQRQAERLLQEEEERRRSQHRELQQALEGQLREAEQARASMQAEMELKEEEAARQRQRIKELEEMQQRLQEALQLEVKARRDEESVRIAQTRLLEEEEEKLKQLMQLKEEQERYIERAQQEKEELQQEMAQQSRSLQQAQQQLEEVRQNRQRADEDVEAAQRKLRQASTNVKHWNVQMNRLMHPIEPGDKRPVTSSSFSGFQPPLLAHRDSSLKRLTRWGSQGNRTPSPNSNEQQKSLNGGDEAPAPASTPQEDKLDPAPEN
# UniProt Q7L014: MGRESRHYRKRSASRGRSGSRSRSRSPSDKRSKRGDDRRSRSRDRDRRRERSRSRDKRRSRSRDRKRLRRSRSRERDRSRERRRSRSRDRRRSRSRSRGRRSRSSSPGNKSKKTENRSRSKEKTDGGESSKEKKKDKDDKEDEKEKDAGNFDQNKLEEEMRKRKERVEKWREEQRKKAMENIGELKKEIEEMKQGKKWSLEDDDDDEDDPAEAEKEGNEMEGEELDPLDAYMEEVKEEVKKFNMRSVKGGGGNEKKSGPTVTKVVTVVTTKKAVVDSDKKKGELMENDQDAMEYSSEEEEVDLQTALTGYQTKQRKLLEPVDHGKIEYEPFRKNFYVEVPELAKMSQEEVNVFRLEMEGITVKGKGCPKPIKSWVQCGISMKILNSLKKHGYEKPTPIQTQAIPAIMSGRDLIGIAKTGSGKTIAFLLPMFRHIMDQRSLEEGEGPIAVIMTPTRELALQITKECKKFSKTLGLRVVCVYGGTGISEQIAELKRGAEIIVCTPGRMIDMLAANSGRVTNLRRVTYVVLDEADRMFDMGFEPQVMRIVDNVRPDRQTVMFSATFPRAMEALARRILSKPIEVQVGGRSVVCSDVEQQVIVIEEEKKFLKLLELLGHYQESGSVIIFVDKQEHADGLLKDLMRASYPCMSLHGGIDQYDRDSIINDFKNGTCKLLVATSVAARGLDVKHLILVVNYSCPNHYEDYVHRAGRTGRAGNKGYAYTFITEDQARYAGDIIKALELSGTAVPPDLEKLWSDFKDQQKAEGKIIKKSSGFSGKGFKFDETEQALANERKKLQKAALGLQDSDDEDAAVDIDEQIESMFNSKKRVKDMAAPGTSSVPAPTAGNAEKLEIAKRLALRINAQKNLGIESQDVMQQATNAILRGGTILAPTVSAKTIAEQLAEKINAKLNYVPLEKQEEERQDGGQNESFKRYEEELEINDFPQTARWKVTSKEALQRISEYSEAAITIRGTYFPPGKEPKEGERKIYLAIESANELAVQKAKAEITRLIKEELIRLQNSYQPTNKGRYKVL
# Compound: Cc1cc(ccc1-c1ccccc1)C(=O)N1CCCN(CC1)C(=O)CCl [compound 10]
# Experiment: probe-labelled cysteine peptide fold change vs DMSO (competition) (log2 fold change); higher = less target engagement (more negative = stronger competition)
# Details: THP-1, incubation time: 4 h
# 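Further: competitive profiling in live THP-1 cells: cysteine peptides tagged with an iodoacetamide desthiobiotin (IA-DTB) probe, intensity after compound treatment relative to DMSO-treated cells.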
Target,probe-labelled cysteine peptide fold change (10 µM),probe-labelled cysteine peptide fold change (50 µM)
DDB1_Q16531_903_ELRTECNHYNNIMALYLK (UniProt Q16531),-0.179,-0.592
DENND3_A2RUS2_197_ADPESPILDLDLHLPLLCFRPEK (UniProt A2RUS2),0.139,0.293
DGKZ_Q13574_793_AIPVQVDGEPCK (UniProt Q13574),0.124,0.034
DDX58_O95786_680_CILDAFK (UniProt O95786),-0.0369,-0.629
DDX42_Q86XP3_346_ELCQQIHAECK (UniProt Q86XP3),0.127,0.218
DDX39A_O00148_164_KNCPHVVVGTPGR (UniProt O00148),-0.0734,-0.265
DDX52_Q9Y2R4_59_SVPGVCGASQTHQKPQNGEK (UniProt Q9Y2R4),-0.155,-0.407
DGKE_P52429_167_TVHDECMK (UniProt P52429),-0.082,-0.168
DEK_P35659_161_SICEVLDLER (UniProt P35659),0.266,0.317
DGLUCY_Q7Z3D6_316_GIGHLLCKDELLK (UniProt Q7Z3D6),-0.162,-0.764
DDX5_P17844_221_GVEICIATPGR (UniProt P17844),0.578,0.211
DDX3X_O00571_468_GADSLEDFLYHEGYACTSIHGDR (UniProt O00571),0.113,0.119
DENND3_A2RUS2_61_EDCVHFLVLTDVCGNR (UniProt A2RUS2),0.111,-0.238
DDX21_Q9NR30_537+539_TGVCICFYQHK (UniProt Q9NR30),-0.0316,-0.0812
DENND4C_Q5VZ89_1211_VVQREDVETGLDPLSLLATECTGGK (UniProt Q5VZ89),-0.182,0.0107
DDX17_Q92841_431_RCDDLTR (UniProt Q92841),-0.219,0.0768
DDX17_Q92841_397_DYTQINVGNLELSANHNILQIVDVCMESEK (UniProt Q92841),0.106,-0.0869
DGKZ_Q13574_713_IQDLKPQCVVFLNIPR (UniProt Q13574),-0.0234,-0.109
DDX5_P17844_354_RCDELTR (UniProt P17844),0.117,0.392
DDX42_Q86XP3_382_ALQEGAEIVVCTPGR (UniProt Q86XP3),0.218,0.244
DDX60L_Q5H9U9_1449_GLFHNLCK (UniProt Q5H9U9),-0.2,0.212

Target,probe-labelled cysteine peptide fold change (10 µM),probe-labelled cysteine peptide fold change (50 µM)
DHCR24_Q15392_474_SVHGFQMLYADCYMNREEFWEMFDGSLYHK (UniProt Q15392),0.0843,0.142
DECR2_Q9NUI1_53_HGCHTVIASR (UniProt Q9NUI1),0.299,0.399
DDX41_Q9UJV9_540_ACDESVLMDLK (UniProt Q9UJV9),-0.00935,-0.107
DGCR8_Q8WYQ5_514_SEVCILHEYMQR (UniProt Q8WYQ5),-0.0725,-0.257
DENND1C_Q8IV53_349_AQALLFGGYRDALVCSPGQPVTFSEEVFLAQKPGAPLQAFHR (UniProt Q8IV53),0.0694,-0.0849
DDX3X_O00571_468_KGADSLEDFLYHEGYACTSIHGDR (UniProt O00571),0.0737,-0.117
DDX27_Q96GQ7_248_ACIPVGLLGK (UniProt Q96GQ7),0.238,-0.122
DDX39B_Q13838_300_CIALAQLLVEQNFPAIAIHR (UniProt Q13838),0.445,0.435
DENND3_A2RUS2_919_LWCALSEGK (UniProt A2RUS2),0.202,0.269
DDX28_Q9NUL7_453_DILLCTDIASR (UniProt Q9NUL7),-0.0698,-0.248
DDX5_P17844_354_CDELTR (UniProt P17844),-0.126,0.21
DDX27_Q96GQ7_261_DICACAATGTGK (UniProt Q96GQ7),0.0612,-0.14
DDX17_Q92841_319_RCTYLVLDEADR (UniProt Q92841),-0.00104,0.178
DDX42_Q86XP3_281_KSEYTQPTPIQCQGVPVALSGR (UniProt Q86XP3),-0.179,-0.1
DDB1_Q16531_378_QGQGQLVTCSGAFK (UniProt Q16531),0.138,0.15
DDX21_Q9NR30_539_TGVCICFYQHK (UniProt Q9NR30),0.0095,-0.0702
DDX20_Q9UHI6_758_LQTEAQEDDWYDCHR (UniProt Q9UHI6),-0.158,-0.439
DDX24_Q9GZR7_599_SLVFANSISCIK (UniProt Q9GZR7),0.147,0.498
DDX6_P26196_102_GNEFEDYCLK (UniProt P26196),-0.219,-0.0192
DENND6A_Q8IWF6_130_VSLHCLLDQFDK (UniProt Q8IWF6),0.295,1.1
DDB1_Q16531_725_KICYQEVSQCFGVLSSR (UniProt Q16531),-0.0379,-0.426

Target,probe-labelled cysteine peptide fold change (10 µM),probe-labelled cysteine peptide fold change (50 µM)
DENND3_A2RUS2_695_DFYNCWK (UniProt A2RUS2),-0.0442,-0.28
DDX21_Q9NR30_445_TIIFCETK (UniProt Q9NR30),0.116,0.377
DDX28_Q9NUL7_360_LHCIMPHVK (UniProt Q9NUL7),-0.266,-0.556
DHCR24_Q15392_393_CLQQALHTFQNDIHVYPIWLCPFILPSQPGLVHPK (UniProt Q15392),-0.136,0.103
DDX21_Q9NR30_418_CHWTQR (UniProt Q9NR30),0.219,0.343
DDX41_Q9UJV9_294_CALCIGGMSVK (UniProt Q9UJV9),0.0677,-0.281
DDX60L_Q5H9U9_502_CHVDEQSR (UniProt Q5H9U9),-0.375,-0.943
DDX17_Q92841_319_CTYLVLDEADRMLDMGFEPQIR (UniProt Q92841),0.023,-0.374
DGKG_P49619_490_VLACGGDGTVGWILDCIDK (UniProt P49619),0.00549,-0.121
DGKZ_Q13574_265_SGLQHLAPPPPTPGAPCSESER (UniProt Q13574),-0.0942,-0.314
DEPDC5_O75140_966_ITEGEAHCDIYGDRPR (UniProt O75140),-0.355,0.108
DEF6_Q9H4E7_246_WFQLQPSCLCYFGSEECK (UniProt Q9H4E7),0.0146,-0.0268
DENND4A_Q7Z401_1843_STHNCDRPPSTGVMECR (UniProt Q7Z401),0.103,-0.573
DDX46_Q7L014_590_SVVCSDVEQQVIVIEEEK (UniProt Q7L014),-0.0827,-0.0152
DDX19A_Q9NUU7_392_VLVTTNVCAR (UniProt Q9NUU7),-0.00998,-0.0703
DDX6_P26196_341_LQINQSIIFCNSSQR (UniProt P26196),0.0751,0.421
DDX24_Q9GZR7_570_IHCETDEK (UniProt Q9GZR7),-0.15,0.261
DDB1_Q16531_725+732_KICYQEVSQCFGVLSSR (UniProt Q16531),-0.0943,-0.169
DHPS_P49366_177_IGNLLVPNENYCK (UniProt P49366),-0.153,-0.161
DDX17_Q92841_199_PVFAFHHANFPQYVMDVLMDQHFTEPTPIQCQGFPLALSGR (UniProt Q92841),0.131,0.291
DGKZ_Q13574_1050_YLLDHAPPEILDAVEENGETCLHQAAALGQR (UniProt Q13574),0.0481,0.0635

Target,probe-labelled cysteine peptide fold change (10 µM),probe-labelled cysteine peptide fold change (50 µM)
DGKD_Q16760_596_LVASACPARPQIFRPR (UniProt Q16760),-0.17,0.0044
DENND1A_Q8TEH3_338_IEPEEPITFCEEAFVSHYR (UniProt Q8TEH3),-0.218,-0.462
DGLUCY_Q7Z3D6_100_YEFGACTGSLASLEQYSEQLK (UniProt Q7Z3D6),0.179,-0.106
DENND4B_O75064_180_GEGTPHTYCR (UniProt O75064),0.245,0.105
DDX17_Q92841_447_RDGWPAMCIHGDK (UniProt Q92841),-0.037,-0.109
DDX20_Q9UHI6_577_EALPVSLPQIPCLSSFK (UniProt Q9UHI6),-0.231,-0.487
DDX54_Q8TDD1_73_KLGPGRPLPTFPTSECTSDVEPDTR (UniProt Q8TDD1),-0.208,-0.387
DDX5_P17844_170_GDGPICLVLAPTR (UniProt P17844),0.398,0.233
DDX46_Q7L014_501_GAEIIVCTPGR (UniProt Q7L014),0.149,-0.0069
DDX1_Q92499_544_KGHQFSCVCLHGDR (UniProt Q92499),0.0322,-0.0152
DDX42_Q86XP3_346_ELCQQIHAECKR (UniProt Q86XP3),0.138,0.04
DDX17_Q92841_584_TTSSANNPNLMYQDECDR (UniProt Q92841),0.301,0.236
DENR_O43583_44_VLYCGVCSLPTEYCEYMPDVAK (UniProt O43583),-0.12,-0.0859
DDX50_Q9BQ39_417_QNAQCLHGDIAQSQR (UniProt Q9BQ39),-0.0486,-0.00294
DENND3_A2RUS2_61+71_EDCVHFLVLTDVCGNR (UniProt A2RUS2),-0.0566,0.0022
DDHD2_O94830_207_GVENISVDIHCGEPLQIDHLVFVVHGIGPACDLR (UniProt O94830),0.069,-0.218
DDX1_Q92499_544_GHQFSCVCLHGDR (UniProt Q92499),0.0844,0.0146
DDX41_Q9UJV9_427_MVYLLECLQK (UniProt Q9UJV9),0.211,0.12
DDX6_P26196_361_ISQLGYSCFYIHAK (UniProt P26196),-0.0144,0.339
DEF6_Q9H4E7_266_RGIIPLDAHCCVEVLPDRDGK (UniProt Q9H4E7),0.179,-0.143
DDX27_Q96GQ7_316+321_QLAQFCNITTCLAVGGLDVK (UniProt Q96GQ7),0.131,0.0433

# — the supplement of paper PMC12067093, “Discovery and optimisation of a covalent ligand for TRIM25 and its application to targeted protein ubiquitination” (Chemical Science, 2025)
